The other results are listed elsewhere or left out. Plates or batches differ in their baseline, so values are only roughly comparable.
Test system: E18 rat cortical neuron-glia co-culture
Assay: total nuclei (DAPI) / Olig2+ nuclei (ratio); higher = more depletion of OPC/OL lineage cells
Conditions: treatment time: 8 days (DIV5-DIV13)

Compound	total nuclei (1 µM)	total nuclei (5 µM)
C=CC1=C(C(=O)O)N2C(=O)[C@@H](NC(=O)/C(=N\O)c3csc(N)n3)[C@H]2SC1 [Cefdinir]	2.96	3.1
CC(C)NCC(O)c1cc(O)cc(O)c1 (stereo not given) [Metaproterenol]	3.97	4.4
CC(COc1ccccc1Cc1ccccc1)N1CCCCC1 (stereo not given) [Benproperine]	3.09	3.6
O=C(NCC1CCCCN1)c1cc(OCC(F)(F)F)ccc1OCC(F)(F)F (stereo not given) [Flecainide]	> 40	2.8
Cn1nnc2c(C(N)=O)ncn2c1=O [Temozolomide]	3.34	4
